PMC10442393
Results are given in words; binding and its absence hold for the method and conditions named. Binding seen in cells or lysates may run through a third protein. Some results given as binding are weak or reduced against the parent protein; the word gives no strength. For some of these results: Tags and fused reporters may be left off the sequences shown.

Sequences of proteins named here, by UniProt entry; tags and fusion partners are left off.
UniProt P03146: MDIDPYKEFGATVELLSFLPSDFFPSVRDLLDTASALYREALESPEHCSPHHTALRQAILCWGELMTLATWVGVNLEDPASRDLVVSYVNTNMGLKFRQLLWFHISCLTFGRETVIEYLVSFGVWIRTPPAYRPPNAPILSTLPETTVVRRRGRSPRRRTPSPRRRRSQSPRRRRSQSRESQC

Legend:
[1] = biological target: T1, FLAG-tagged TRIM26 (tripartite motif-containing protein 26) (UniProt Q12899); experiment: co-IP; competitive Co-IP: HEK293T co-transfected with FLAG-TRIM26, TRIM26ΔR and HBc-Myc; harvested at 48 hpt; IP with anti-FLAG antibody; western blotting
T1 sequence: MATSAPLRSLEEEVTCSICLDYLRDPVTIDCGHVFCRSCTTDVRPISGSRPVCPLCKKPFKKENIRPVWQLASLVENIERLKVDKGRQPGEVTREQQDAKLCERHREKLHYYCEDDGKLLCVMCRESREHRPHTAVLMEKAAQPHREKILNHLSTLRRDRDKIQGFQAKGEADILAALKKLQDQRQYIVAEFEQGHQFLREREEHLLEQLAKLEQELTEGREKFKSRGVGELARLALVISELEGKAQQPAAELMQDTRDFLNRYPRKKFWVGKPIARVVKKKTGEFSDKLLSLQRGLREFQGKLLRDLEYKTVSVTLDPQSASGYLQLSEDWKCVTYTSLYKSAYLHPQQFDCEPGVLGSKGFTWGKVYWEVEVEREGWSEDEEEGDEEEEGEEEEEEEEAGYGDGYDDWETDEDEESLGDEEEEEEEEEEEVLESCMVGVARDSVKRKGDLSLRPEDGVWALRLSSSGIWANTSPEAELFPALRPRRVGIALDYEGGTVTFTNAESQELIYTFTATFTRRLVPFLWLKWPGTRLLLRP

[2] = biological target: T1, FLAG-tagged TRIM26 (tripartite motif-containing protein 26); experiment: proximity ligation; HEK293T transiently co-transfected with HBc-Myc and FLAG-TRIM26, FLAG-TRIM26ΔSPRY or FLAG-SPRY; fixed, permeabilised; antibodies against Myc-tag and FLAG-tag; PLA dots per nucleus
[3] = biological target: T1, FLAG-tagged TRIM26 (tripartite motif-containing protein 26); experiment: co-IP; HEK293T co-transfected with FLAG-TRIM26 or its deletion mutants and a Myc-tagged HBV protein; harvested at 48 hpt in NP-40 buffer (50 mM Hepes pH7.5, 150 mM NaCl, 0.5% NP-40); IP with anti-FLAG antibody on Protein G magnetic beads, room temperature 1 h; western blotting
[4] = biological target: T2, endogenous TRIM26 (human (endogenous in Huh-7)) (UniProt Q12899); experiment: proximity ligation; Huh-7 and Huh-7/HBc-FLAG cells (stable); antibodies against FLAG-tag and TRIM26 (endogenous); PLA dots per nucleus
T2 sequence: T1 sequence

Row | Substance | binding [1] | binding [2] | binding [3] | binding [4]
1 | Myc-tagged HBV core protein (HBc-Myc) (from UniProt P03146 1-183) | binds | binds | binds | 
2 | FLAG-tagged HBc (HBc-FLAG) (from UniProt P03146 1-183) |  |  |  | binds
